Measured values reported in the supplement of paper PMC12823440, “Inhibitors supercharge kinase turnover through native proteolytic circuits” (Nature, 2025).
Counter-ions that a name gives are not always drawn. Some of the results follow. The calls rarely recur for the same compound in another form.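 Kinases were expressed as nanoluciferase fusions in K562 cells and luminescence was read every 4 h between 2 and 18 h as percent of control, DMSO set to 100% and a positive control to 0%. A time point counts as decreased when the signal drops significantly (2 sigma). The hit call is the authors' own, does not follow from the count of time points alone, and its rule is not shown.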

Protein sequences, listed by entry. Tags and fused reporters are not part of them. Lines headed by an entry give the natural chain unless they say otherwise; changes in a name come on top.
UniProt P50613: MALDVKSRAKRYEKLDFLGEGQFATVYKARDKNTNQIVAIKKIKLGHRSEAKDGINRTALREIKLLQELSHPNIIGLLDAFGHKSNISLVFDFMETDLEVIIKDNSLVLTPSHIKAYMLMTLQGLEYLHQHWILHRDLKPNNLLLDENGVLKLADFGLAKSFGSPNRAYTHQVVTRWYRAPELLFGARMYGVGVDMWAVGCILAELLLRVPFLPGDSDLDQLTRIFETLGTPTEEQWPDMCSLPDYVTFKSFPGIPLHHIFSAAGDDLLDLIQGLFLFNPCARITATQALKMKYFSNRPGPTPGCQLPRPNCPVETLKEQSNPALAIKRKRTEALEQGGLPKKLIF
UniProt P50750, whole entry: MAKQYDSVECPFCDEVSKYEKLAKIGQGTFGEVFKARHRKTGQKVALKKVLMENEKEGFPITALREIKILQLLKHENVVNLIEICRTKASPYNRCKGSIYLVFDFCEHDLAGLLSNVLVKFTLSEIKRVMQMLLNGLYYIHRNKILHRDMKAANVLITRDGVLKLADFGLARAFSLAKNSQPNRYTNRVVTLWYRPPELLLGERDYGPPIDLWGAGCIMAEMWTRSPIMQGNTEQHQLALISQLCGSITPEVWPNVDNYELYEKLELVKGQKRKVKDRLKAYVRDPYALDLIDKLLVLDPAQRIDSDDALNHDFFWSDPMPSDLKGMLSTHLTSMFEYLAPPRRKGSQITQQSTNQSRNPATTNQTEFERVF
UniProt O96017, whole entry: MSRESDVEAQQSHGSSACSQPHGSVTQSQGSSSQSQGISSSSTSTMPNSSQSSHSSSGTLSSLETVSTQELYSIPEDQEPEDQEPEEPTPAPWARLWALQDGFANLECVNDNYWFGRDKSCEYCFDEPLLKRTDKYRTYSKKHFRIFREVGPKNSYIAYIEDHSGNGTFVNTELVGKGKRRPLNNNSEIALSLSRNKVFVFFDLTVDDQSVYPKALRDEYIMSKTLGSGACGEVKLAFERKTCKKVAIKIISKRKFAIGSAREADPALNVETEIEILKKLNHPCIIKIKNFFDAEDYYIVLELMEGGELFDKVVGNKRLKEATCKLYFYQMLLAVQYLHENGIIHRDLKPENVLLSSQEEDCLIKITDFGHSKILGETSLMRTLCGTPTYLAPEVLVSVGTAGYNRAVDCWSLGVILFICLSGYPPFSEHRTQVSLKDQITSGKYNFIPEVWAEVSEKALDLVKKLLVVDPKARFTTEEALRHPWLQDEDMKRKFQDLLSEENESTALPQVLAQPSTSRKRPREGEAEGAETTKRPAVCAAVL
UniProt P07333, whole entry: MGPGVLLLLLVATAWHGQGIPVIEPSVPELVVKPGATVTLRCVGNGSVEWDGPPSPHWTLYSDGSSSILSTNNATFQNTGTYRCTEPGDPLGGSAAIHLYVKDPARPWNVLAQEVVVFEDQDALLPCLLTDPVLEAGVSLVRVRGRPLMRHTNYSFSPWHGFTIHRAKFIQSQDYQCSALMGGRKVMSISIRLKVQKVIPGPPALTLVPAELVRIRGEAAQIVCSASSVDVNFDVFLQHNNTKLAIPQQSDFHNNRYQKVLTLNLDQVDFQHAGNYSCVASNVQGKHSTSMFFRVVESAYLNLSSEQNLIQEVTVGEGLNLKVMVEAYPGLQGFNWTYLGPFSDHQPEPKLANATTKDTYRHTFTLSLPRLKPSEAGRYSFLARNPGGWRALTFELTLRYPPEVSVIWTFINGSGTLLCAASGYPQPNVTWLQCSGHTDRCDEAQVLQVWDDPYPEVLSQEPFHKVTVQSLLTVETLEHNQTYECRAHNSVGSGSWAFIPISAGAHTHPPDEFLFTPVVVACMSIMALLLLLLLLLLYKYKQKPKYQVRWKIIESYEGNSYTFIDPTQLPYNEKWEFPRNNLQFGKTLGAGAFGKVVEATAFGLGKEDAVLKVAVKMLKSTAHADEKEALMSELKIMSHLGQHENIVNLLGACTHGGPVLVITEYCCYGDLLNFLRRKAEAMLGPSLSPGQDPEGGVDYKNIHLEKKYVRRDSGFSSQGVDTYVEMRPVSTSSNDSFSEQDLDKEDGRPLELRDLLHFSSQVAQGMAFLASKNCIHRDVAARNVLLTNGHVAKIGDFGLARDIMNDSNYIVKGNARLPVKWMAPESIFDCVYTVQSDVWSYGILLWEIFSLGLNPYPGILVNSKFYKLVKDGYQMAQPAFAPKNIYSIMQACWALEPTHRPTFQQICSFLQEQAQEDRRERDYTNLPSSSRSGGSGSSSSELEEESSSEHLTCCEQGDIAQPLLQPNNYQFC
UniProt P41240: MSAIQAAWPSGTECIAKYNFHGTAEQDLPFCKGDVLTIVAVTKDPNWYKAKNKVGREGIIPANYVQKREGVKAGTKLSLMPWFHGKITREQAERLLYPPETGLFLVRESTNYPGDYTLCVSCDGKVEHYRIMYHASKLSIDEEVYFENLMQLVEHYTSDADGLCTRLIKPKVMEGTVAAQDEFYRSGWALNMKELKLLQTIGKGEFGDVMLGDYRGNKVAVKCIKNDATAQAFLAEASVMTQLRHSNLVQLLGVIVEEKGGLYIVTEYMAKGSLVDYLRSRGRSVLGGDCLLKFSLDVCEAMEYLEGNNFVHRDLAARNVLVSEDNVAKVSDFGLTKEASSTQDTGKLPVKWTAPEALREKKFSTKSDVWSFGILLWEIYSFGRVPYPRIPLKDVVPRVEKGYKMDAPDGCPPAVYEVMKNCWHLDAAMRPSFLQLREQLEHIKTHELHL
UniProt P48729: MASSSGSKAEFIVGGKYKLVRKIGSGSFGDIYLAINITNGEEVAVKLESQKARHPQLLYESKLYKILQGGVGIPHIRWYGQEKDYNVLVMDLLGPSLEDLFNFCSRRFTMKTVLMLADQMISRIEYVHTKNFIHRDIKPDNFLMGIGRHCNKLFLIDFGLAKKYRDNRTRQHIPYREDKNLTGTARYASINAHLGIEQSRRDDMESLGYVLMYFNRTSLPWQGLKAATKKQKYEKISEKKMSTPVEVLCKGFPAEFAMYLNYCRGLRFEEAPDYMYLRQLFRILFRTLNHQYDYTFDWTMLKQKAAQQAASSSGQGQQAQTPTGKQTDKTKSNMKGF
UniProt P48730: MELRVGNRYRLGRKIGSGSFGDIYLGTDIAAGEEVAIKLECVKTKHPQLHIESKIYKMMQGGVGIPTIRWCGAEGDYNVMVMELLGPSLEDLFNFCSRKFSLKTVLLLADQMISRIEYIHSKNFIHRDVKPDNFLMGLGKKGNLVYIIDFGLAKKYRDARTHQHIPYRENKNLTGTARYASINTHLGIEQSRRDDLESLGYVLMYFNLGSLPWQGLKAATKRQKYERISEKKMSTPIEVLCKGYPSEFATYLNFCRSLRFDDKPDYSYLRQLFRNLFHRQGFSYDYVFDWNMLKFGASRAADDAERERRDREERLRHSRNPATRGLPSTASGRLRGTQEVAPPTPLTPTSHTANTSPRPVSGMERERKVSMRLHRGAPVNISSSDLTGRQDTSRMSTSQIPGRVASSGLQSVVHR
UniProt Q08345: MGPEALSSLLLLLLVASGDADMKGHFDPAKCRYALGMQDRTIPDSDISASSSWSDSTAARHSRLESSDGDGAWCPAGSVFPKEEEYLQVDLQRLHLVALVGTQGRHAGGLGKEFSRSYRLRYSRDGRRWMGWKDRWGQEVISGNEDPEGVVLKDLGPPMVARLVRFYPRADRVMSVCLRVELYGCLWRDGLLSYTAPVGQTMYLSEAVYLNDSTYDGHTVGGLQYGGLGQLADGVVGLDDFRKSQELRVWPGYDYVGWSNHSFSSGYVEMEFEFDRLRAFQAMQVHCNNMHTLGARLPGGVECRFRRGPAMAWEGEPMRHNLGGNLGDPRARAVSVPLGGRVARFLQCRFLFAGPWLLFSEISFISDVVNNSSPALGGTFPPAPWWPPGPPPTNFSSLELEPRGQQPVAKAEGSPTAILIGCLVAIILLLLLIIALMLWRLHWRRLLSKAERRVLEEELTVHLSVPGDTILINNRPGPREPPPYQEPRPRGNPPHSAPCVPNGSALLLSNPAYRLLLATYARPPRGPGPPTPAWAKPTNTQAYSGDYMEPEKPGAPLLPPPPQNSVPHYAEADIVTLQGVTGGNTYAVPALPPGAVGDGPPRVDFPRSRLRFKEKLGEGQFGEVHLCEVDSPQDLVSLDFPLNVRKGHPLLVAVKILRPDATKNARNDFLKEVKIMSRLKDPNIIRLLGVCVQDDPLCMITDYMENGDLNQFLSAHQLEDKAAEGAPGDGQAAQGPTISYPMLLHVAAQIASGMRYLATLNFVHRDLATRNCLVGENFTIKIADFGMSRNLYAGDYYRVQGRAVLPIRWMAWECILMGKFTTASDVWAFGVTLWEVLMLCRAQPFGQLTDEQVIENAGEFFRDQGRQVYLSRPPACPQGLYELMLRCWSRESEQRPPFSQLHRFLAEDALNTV
UniProt Q9Y463, whole entry, looked up: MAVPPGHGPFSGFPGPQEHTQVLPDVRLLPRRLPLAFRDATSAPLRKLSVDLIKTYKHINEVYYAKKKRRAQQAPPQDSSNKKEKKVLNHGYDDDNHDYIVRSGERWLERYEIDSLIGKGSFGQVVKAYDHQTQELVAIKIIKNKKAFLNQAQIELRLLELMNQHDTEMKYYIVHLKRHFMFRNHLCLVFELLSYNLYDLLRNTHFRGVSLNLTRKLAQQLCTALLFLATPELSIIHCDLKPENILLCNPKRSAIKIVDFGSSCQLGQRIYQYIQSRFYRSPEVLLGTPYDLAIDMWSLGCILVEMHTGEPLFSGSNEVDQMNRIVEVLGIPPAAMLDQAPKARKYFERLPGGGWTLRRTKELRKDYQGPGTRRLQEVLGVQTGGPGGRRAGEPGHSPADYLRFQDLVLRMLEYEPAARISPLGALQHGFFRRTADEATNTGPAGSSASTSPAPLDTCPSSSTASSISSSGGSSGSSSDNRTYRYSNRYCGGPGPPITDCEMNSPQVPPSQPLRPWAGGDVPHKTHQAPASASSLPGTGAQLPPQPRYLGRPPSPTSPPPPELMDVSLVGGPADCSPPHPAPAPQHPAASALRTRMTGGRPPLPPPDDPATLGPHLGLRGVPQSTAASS
UniProt Q92630: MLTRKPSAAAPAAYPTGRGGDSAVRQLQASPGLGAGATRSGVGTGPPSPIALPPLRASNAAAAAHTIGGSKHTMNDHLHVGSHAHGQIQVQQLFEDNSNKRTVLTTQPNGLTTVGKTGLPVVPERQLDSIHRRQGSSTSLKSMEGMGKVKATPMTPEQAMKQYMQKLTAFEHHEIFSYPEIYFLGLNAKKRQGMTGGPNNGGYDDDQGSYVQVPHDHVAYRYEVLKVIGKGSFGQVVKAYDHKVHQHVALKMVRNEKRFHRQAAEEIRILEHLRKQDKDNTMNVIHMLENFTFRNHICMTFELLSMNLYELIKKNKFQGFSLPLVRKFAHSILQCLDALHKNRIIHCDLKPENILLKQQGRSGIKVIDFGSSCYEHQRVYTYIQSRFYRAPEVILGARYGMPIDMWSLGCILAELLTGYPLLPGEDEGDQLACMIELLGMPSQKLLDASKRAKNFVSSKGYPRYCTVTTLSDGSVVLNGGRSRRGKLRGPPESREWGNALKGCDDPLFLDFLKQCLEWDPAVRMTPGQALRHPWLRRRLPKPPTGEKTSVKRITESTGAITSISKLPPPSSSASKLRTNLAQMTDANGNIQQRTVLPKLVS

Columns and labels:
Assay in all cases: kinase-Nluc reporter destabilization hit call (1 = scored as downregulated) (binary); higher = compound decreases kinase abundance
Details in all cases: K562; 2-18 h
CDK7 = CDK7 (UniProt P50613)
CDK9 = CDK9 (UniProt P50750)
CHEK2 = CHEK2 (UniProt O96017)
CSF1R = CSF1R (UniProt P07333)
CSK = CSK (UniProt P41240)
CSNK1A1 = CSNK1A1 (UniProt P48729)
CSNK1D = CSNK1D (UniProt P48730)
DDR1 = DDR1 (UniProt Q08345)
DYRK1B = DYRK1B (UniProt Q9Y463)
DYRK2 = DYRK2 (UniProt Q92630)

SMILES | kinase-Nluc reporter destabilization hit call (CDK7) | kinase-Nluc reporter destabilization hit call (CDK9) | kinase-Nluc reporter destabilization hit call (CHEK2) | kinase-Nluc reporter destabilization hit call (CSF1R) | kinase-Nluc reporter destabilization hit call (CSK) | kinase-Nluc reporter destabilization hit call (CSNK1A1) | kinase-Nluc reporter destabilization hit call (CSNK1D) | kinase-Nluc reporter destabilization hit call (DDR1) | kinase-Nluc reporter destabilization hit call (DYRK1B) | kinase-Nluc reporter destabilization hit call (DYRK2)
COc1cc2ncnc(Oc3ccc(CC(=O)Nc4cnn(C(C)C)c4)cc3)c2cc1OC (10 µM) | inactive: 0 | inactive: 0 | inactive: 0 | inactive: 0 | inactive: 0 | inactive: 0 | inactive: 0 | inactive: 0 | inactive: 0 | inactive: 0
O=C(ON=C1c2ccccc2-c2nc3ccccc3nc21)c1ccco1 (2.5 µM) | inactive: 0 | inactive: 0 | inactive: 0 | inactive: 0 | inactive: 0 | inactive: 0 | inactive: 0 | inactive: 0 | inactive: 0 | inactive: 0
N#Cc1ccc2ncnc(NCCc3ccccc3)c2c1 [Senexin A] (10 µM) | inactive: 0 | inactive: 0 | inactive: 0 | inactive: 0 | inactive: 0 | inactive: 0 | inactive: 0 | inactive: 0 | inactive: 0 | inactive: 0
CO[C@H]1C[C@@H]2CC[C@@H](C)[C@@](O)(O2)C(=O)C(=O)N2CCCC[C@H]2C(=O)O[C@H]([C@H](C)C[C@@H]2CC[C@@H](OCCO)[C@H](OC)C2)CC(=O)[C@H](C)/C=C(\C)[C@@H](O)[C@@H](OC)C(=O)[C@H](C)C[C@H](C)/C=C/C=C/C=C/1C [Everolimus] (10 µM) | inactive: 0 | inactive: 0 | inactive: 0 | inactive: 0 | inactive: 0 | inactive: 0 | inactive: 0 | inactive: 0 | inactive: 0 | inactive: 0
O=C(Nc1ccc(Cl)cc1)C1CCCN(C(=O)c2cc(C(F)(F)F)cc(C(F)(F)F)c2)C1 (stereo not given) (10 µM) | active: 1 | inactive: 0 | inactive: 0 | inactive: 0 | inactive: 0 | inactive: 0 | inactive: 0 | active: 1 | inactive: 0 | inactive: 0
CNC(=O)c1ccc2c(c1)ncn2-c1ccc(CC(=O)OC(C)(C)C)cc1 (10 µM) | inactive: 0 | inactive: 0 | inactive: 0 | inactive: 0 | inactive: 0 | inactive: 0 | inactive: 0 | inactive: 0 | inactive: 0 | inactive: 0
COc1ccc(Br)cc1NC(=O)Nc1cccc2c1ccn2Cc1ccnc(N)c1 (2.5 µM) | inactive: 0 | inactive: 0 | inactive: 0 | inactive: 0 | inactive: 0 | inactive: 0 | inactive: 0 | inactive: 0 | inactive: 0 | inactive: 0
Oc1c(F)cc(-c2cnccc2-c2ccc(N3CCOCC3)cc2)cc1F (10 µM) | inactive: 0 | inactive: 0 | inactive: 0 | inactive: 0 | inactive: 0 | inactive: 0 | inactive: 0 | inactive: 0 | inactive: 0 | inactive: 0
Nc1nccc(-c2c(-c3ccc(F)cc3)ncn2C2CCCCC2)n1 (10 µM) | inactive: 0 | inactive: 0 | inactive: 0 | inactive: 0 | inactive: 0 | inactive: 0 | inactive: 0 | inactive: 0 | inactive: 0 | inactive: 0
CC(C)Oc1ccc(F)c(-c2cnc(N)c(C(=O)Nc3cnccc3N3CCC[C@@H](C(=O)O)C3)n2)c1 (2 µM) | inactive: 0 | inactive: 0 | inactive: 0 | inactive: 0 | inactive: 0 | inactive: 0 | inactive: 0 | inactive: 0 | inactive: 0 | inactive: 0
CC1=C(C(=O)Nc2cc3cn[nH]c3cc2F)C(c2ccc(C(F)(F)F)cc2)CC(=O)N1 (stereo not given) (10 µM) | inactive: 0 | inactive: 0 | inactive: 0 | inactive: 0 | inactive: 0 | inactive: 0 | inactive: 0 | inactive: 0 | inactive: 0 | inactive: 0
Cc1nn(C)cc1-c1nc2c(N3CCN(Cc4ccc(Cl)cc4)CC3)c(Cl)cnc2[nH]1 (10 µM) | inactive: 0 | inactive: 0 | inactive: 0 | inactive: 0 | inactive: 0 | inactive: 0 | inactive: 0 | inactive: 0 | inactive: 0 | inactive: 0
Cn1ncc(NC(=O)c2nc(-c3c(F)cccc3F)sc2N)c1N1CC[C@@H](N)[C@H](F)CC1 (10 µM) | inactive: 0 | inactive: 0 | inactive: 0 | inactive: 0 | inactive: 0 | inactive: 0 | inactive: 0 | inactive: 0 | inactive: 0 | inactive: 0
CCCCCC(=O)N[C@@H](Cc1ccc(O)cc1)C(=O)OC (10 µM) | inactive: 0 | inactive: 0 | inactive: 0 | inactive: 0 | inactive: 0 | inactive: 0 | inactive: 0 | inactive: 0 | inactive: 0 | inactive: 0
C#Cc1cccc(Nc2ncnc3cc(OC)c(NC(=O)N4C[C@H]5CCN(C)[C@H]5C4)cc23)c1 [Theliatinib] (10 µM) | inactive: 0 | inactive: 0 | inactive: 0 | inactive: 0 | inactive: 0 | inactive: 0 | inactive: 0 | inactive: 0 | inactive: 0 | inactive: 0
Cc1cc([C@@H](C)Nc2ccccc2C(=O)O)c2nc(N3CCOCC3)cc(=O)n2c1 (10 µM) | inactive: 0 | inactive: 0 | inactive: 0 | inactive: 0 | inactive: 0 | inactive: 0 | inactive: 0 | inactive: 0 | inactive: 0 | inactive: 0
COc1cc2cc(Oc3ccc4ccc(=O)oc4c3)c(=O)oc2cc1O [Daphnoretin] (10 µM) | inactive: 0 | inactive: 0 | inactive: 0 | inactive: 0 | inactive: 0 | inactive: 0 | inactive: 0 | inactive: 0 | inactive: 0 | inactive: 0
O=C(O)c1ccc(/C=C/S(=O)(=O)Cc2ccc(Cl)cc2)cc1 [Recilisib] (10 µM) | inactive: 0 | inactive: 0 | inactive: 0 | inactive: 0 | inactive: 0 | inactive: 0 | inactive: 0 | inactive: 0 | inactive: 0 | inactive: 0
Cc1ccc(NC(=O)Nc2cc(C(F)(F)F)ccc2F)cc1Nc1ccc2c(c1)NC(=O)/C2=C\c1ccc[nH]1 (2.5 µM) | inactive: 0 | inactive: 0 | inactive: 0 | inactive: 0 | inactive: 0 | inactive: 0 | inactive: 0 | inactive: 0 | inactive: 0 | inactive: 0
C=CC(=O)Nc1cc(Nc2nccc(-c3cn(C)c4ccccc34)n2)c(OC)cc1OCCN(C)C [Rezivertinib] (2.5 µM) | inactive: 0 | inactive: 0 | inactive: 0 | inactive: 0 | inactive: 0 | inactive: 0 | inactive: 0 | inactive: 0 | inactive: 0 | inactive: 0
Cc1cc(C(=O)NOCCO)c(Nc2ccc(I)cc2F)n(C)c1=O (10 µM) | inactive: 0 | inactive: 0 | inactive: 0 | inactive: 0 | inactive: 0 | inactive: 0 | inactive: 0 | inactive: 0 | inactive: 0 | inactive: 0
Cc1c(C(=O)Nc2ccc(Oc3ccnc4[nH]cc(-c5ccccc5)c34)c(F)c2)c(=O)n(-c2ccc(F)cc2)n1C (10 µM) | inactive: 0 | inactive: 0 | inactive: 0 | inactive: 0 | inactive: 0 | inactive: 0 | inactive: 0 | inactive: 0 | inactive: 0 | inactive: 0
Cn1c(CNc2cccc(C(=O)NCc3ccccc3C(F)(F)F)c2)nnc1-c1ccncc1 (10 µM) | inactive: 0 | inactive: 0 | inactive: 0 | inactive: 0 | inactive: 0 | inactive: 0 | inactive: 0 | inactive: 0 | inactive: 0 | inactive: 0
NCCOc1ccc(Cl)cc1C(=O)Nc1ccc([N+](=O)[O-])cc1Cl [HJC0152 hydrochloride] (2 µM) | inactive: 0 | inactive: 0 | inactive: 0 | inactive: 0 | inactive: 0 | inactive: 0 | inactive: 0 | inactive: 0 | inactive: 0 | inactive: 0
C=CC(=O)Nc1cccc(Oc2nc(Nc3ccc(N4CCN(C)CC4)c(F)c3)nc3[nH]ccc23)c1 [Avitinib (maleate)] (2.5 µM) | inactive: 0 | inactive: 0 | inactive: 0 | inactive: 0 | inactive: 0 | inactive: 0 | inactive: 0 | inactive: 0 | inactive: 0 | inactive: 0
CC(C)=CC[C@@H](O)C1=CC(=O)c2c(O)ccc(O)c2C1=O [Shikonin] (10 µM) | inactive: 0 | inactive: 0 | inactive: 0 | inactive: 0 | inactive: 0 | inactive: 0 | inactive: 0 | inactive: 0 | inactive: 0 | inactive: 0
COC(=O)[C@H](CCSC)NC(=O)c1ccc(NC[C@@H](N)CS)cc1-c1ccccc1 [FTI-277 (hydrochloride)] (10 µM) | inactive: 0 | inactive: 0 | inactive: 0 | inactive: 0 | inactive: 0 | inactive: 0 | inactive: 0 | inactive: 0 | inactive: 0 | inactive: 0

Copied from the entries so far (2 entries):
SMILES | kinase-Nluc reporter destabilization hit call (CDK7) | kinase-Nluc reporter destabilization hit call (CDK9) | kinase-Nluc reporter destabilization hit call (CHEK2) | kinase-Nluc reporter destabilization hit call (CSF1R) | kinase-Nluc reporter destabilization hit call (CSK) | kinase-Nluc reporter destabilization hit call (CSNK1A1) | kinase-Nluc reporter destabilization hit call (CSNK1D) | kinase-Nluc reporter destabilization hit call (DDR1) | kinase-Nluc reporter destabilization hit call (DYRK1B) | kinase-Nluc reporter destabilization hit call (DYRK2)
Cn1ncc(NC(=O)c2nc(-c3c(F)cccc3F)sc2N)c1N1CC[C@@H](N)[C@H](F)CC1 (10 µM) | inactive: 0 | inactive: 0 | inactive: 0 | inactive: 0 | inactive: 0 | inactive: 0 | inactive: 0 | inactive: 0 | inactive: 0 | inactive: 0
CCCCCC(=O)N[C@@H](Cc1ccc(O)cc1)C(=O)OC (10 µM) | inactive: 0 | inactive: 0 | inactive: 0 | inactive: 0 | inactive: 0 | inactive: 0 | inactive: 0 | inactive: 0 | inactive: 0 | inactive: 0
